# System: CHO-S cells expressing IgG1 mAb1
# Assay: Fed-batch culture in Spin Tubes, host cells expressing mAb1
# Format: cell-based, Chinese Hamster
# Details: 8.5 μM
# Description: Assays were performed with 2 CHO cell lines: • CHO-S cells expressing IgG1 mAb1, herein “Cells mAb1” or “mAb1 cells”. “mAb1” is a fully human monoclonal antibody directed against a soluble protein. Its isoelectric point (pI) is about 8.20-8.30. • CHO-K1 cells expressing IgG1 mAb2, herein “Cells mAb2” or “mAb2 cells”. “mAb2” is a humanised monoclonal antibody directed against a receptor found on the cell membrane. Its isoelectric point (pI) is about 9.30. 2) Cell Expansion
# Cells expressing mAb2 were inoculated at 0.2×10^6 cells per millilitre (mL), whereas cells expressing mAb1 were inoculated at 0.3×10^6 cells per mL.
# All assays were performed in fed-batch culture. The host cells were cultured in fed-batch system either in microplates (“Deep well plate”) or in Spin Tubes®, and incubated at 36.5° C., 90% relative humidity, 5% CO2 and 320 rpm shaking during 14 days.
# Viable cell density and viability were measured with the Guava easyCyte® flow cytometer or with the ViCell.
# Antibody titres were measured with the fortêBIO Octet® or with Biacore C®.
# Glycosylation profiles were established by capillary gel electrophoresis with laser-induced fluorescence (CGE-LIF). Dosages of aggregates and fragments were performed respectively via Size Exclusion High Performance Liquid Chromatography (SE-HPLC) and SDS-capillary gel electrophoresis.
smiles,measurement,setting,value
Nc1c(S(=O)(=O)O)cc(Nc2ccc(Nc3nc(Cl)nc(Nc4ccccc4S(=O)(=O)O)n3)c(S(=O)(=O)O)c2)c2c1C(=O)c1ccccc1C2=O [Cibacron Blue 3GA],quality of antibody mAb1 (glycosylation profile),,not affected
same,percentage of fragments and aggregates,mAb1,slightly decreased

# — patent US10767160B2, “Methods for modulating production profiles of recombinant proteins” (ARES TRADING S.A., priority 2015, dated 2020)
